Paper PMC7791120
No constants are given. Whether binding was seen depends on the method and setting. In cells and extracts the contact can be indirect.

Chains of the proteins cited; added tags and fusions are not shown. Residues count along the entry.
UniProt P28074, residues 60-263: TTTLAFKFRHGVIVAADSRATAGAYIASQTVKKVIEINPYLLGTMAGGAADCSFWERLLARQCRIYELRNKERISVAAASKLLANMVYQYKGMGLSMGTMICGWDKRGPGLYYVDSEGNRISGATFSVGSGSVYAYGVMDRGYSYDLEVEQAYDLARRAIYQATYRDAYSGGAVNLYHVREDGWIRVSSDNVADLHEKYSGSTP

Biological target: T1, Tribbles homolog 2 (TRIB2), endogenous (human (endogenous in Bel-7402)) (UniProt Q92519)
T1 sequence: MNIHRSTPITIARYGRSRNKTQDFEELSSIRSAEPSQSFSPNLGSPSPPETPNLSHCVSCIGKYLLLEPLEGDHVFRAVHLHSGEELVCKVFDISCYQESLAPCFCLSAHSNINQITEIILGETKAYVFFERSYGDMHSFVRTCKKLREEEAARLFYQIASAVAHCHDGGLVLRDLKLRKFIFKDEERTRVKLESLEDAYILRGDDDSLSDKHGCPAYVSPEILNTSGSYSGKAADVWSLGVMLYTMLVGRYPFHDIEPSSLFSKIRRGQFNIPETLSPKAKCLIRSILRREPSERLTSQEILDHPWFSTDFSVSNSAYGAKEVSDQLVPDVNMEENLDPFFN
Assay: proximity ligation; Duolink in situ PLA on cells fixed in 4% paraformaldehyde, primary antibodies to the two proteins; Bel-7402 and SMMC-7721 named for PCBP2 with PSMB5

binding: no binding
Substance: proteasome 20S subunit beta 5 (PSMB5), endogenous (from UniProt P28074 60-263)
